This is an account of results in article doi:10.1101/2021.03.09.434627.

For assay [1], the target named is T1, His6-HSCA2-Myc (Arabidopsis) (UniProt Q9LDZ0).
T1 sequence: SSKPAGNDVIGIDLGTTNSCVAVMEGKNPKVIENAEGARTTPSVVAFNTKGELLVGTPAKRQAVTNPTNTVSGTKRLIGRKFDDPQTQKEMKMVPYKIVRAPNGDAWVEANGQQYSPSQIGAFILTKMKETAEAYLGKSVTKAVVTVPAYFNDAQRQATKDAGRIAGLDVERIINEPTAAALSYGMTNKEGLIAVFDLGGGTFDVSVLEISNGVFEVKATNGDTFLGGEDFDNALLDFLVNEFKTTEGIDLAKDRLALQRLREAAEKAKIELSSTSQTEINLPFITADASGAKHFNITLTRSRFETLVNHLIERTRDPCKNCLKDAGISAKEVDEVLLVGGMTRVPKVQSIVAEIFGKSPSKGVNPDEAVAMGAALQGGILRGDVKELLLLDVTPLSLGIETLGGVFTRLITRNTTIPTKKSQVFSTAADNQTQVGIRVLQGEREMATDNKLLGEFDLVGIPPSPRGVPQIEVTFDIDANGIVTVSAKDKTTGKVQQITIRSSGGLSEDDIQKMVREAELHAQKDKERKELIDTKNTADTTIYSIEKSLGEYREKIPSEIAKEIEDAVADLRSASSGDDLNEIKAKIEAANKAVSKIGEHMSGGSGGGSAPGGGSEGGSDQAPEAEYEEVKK
Briefly: pull-down.

The target of assay [2] is T2, His6-HSCA2^G87D-Myc (Arabidopsis) (UniProt Q9LDZ0).
T2 sequence: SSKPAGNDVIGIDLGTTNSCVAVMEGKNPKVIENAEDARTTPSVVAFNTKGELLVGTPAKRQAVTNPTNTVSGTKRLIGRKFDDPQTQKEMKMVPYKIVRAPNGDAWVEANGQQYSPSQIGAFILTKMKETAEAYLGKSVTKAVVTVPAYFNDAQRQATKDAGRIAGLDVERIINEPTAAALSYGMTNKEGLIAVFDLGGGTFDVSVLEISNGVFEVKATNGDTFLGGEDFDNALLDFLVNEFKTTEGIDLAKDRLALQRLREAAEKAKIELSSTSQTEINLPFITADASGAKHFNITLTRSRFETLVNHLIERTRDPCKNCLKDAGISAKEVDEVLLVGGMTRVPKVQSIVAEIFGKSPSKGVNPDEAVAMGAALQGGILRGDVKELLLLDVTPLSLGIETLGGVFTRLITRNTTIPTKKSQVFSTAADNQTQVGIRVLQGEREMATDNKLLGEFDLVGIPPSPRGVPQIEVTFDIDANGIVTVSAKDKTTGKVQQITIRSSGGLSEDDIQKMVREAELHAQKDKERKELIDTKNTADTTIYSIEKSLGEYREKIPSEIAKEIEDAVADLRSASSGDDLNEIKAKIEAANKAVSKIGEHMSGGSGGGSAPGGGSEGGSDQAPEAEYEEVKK
Briefly: pull-down.

A further assay deals with SSR1-cCFP (Arabidopsis) (UniProt Q9LZL9). Briefly: split reporter.
Assay [3] addresses His6-SSR1-Myc (Arabidopsis). Description: pull-down.
The target in the next assay is SSR1-Flag (Arabidopsis). Description: co-IP.

No constants are given. Whether binding was seen depends on the method and setting. In cells and extracts the contact can be indirect. A result given as binding can be weak or reduced; the word gives no strength. For some assays here: Where a sequence is shown, tags or fusion partners need not be part of it.

SSR1-Myc (Arabidopsis): the binding result in assay [1] and in assay [2] was “binds” throughout.

B1: ISU1-nVenus (protein, UniProt O49627 51-167)
chain: PNVGTGLVGAPACGDVMKLQIKVDEKTGQIVDARFKTFGCGSAIASSSVATEWVKGKAMEDVLTIKNTEIAKHLSLPPVKLHCSMLAEDAIKAAVKDYKEKRVKTNGAAAAGETTQA
With B1, the binding entry with SSR1-cCFP (Arabidopsis) is reported as “binds”.

B2: ISU1^T55M-Myc (protein, UniProt O49627 51-167)
chain: PNVGMGLVGAPACGDVMKLQIKVDEKTGQIVDARFKTFGCGSAIASSSVATEWVKGKAMEDVLTIKNTEIAKHLSLPPVKLHCSMLAEDAIKAAVKDYKEKRVKTNGAAAAGETTQA
Consider B2, for which, in assay [3], the binding entry was “binds”.

B3: ISU1 (protein, UniProt O49627 51-167)
chain: PNVGTGLVGAPACGDVMKLQIKVDEKTGQIVDARFKTFGCGSAIASSSVATEWVKGKAMEDVLTIKNTEIAKHLSLPPVKLHCSMLAEDAIKAAVKDYKEKRVKTNGAAAAGETTQA
Take B3: the binding entry with SSR1-Flag (Arabidopsis) is reported as “binds”.

B4: ISU1-Myc (protein, UniProt O49627 51-167)
chain: PNVGTGLVGAPACGDVMKLQIKVDEKTGQIVDARFKTFGCGSAIASSSVATEWVKGKAMEDVLTIKNTEIAKHLSLPPVKLHCSMLAEDAIKAAVKDYKEKRVKTNGAAAAGETTQA
B4: in assay [3], the binding entry is “binds”.

B5: HSCA2-nVenus (protein, UniProt Q9LDZ0 51-682)
chain: SSKPAGNDVIGIDLGTTNSCVAVMEGKNPKVIENAEGARTTPSVVAFNTKGELLVGTPAKRQAVTNPTNTVSGTKRLIGRKFDDPQTQKEMKMVPYKIVRAPNGDAWVEANGQQYSPSQIGAFILTKMKETAEAYLGKSVTKAVVTVPAYFNDAQRQATKDAGRIAGLDVERIINEPTAAALSYGMTNKEGLIAVFDLGGGTFDVSVLEISNGVFEVKATNGDTFLGGEDFDNALLDFLVNEFKTTEGIDLAKDRLALQRLREAAEKAKIELSSTSQTEINLPFITADASGAKHFNITLTRSRFETLVNHLIERTRDPCKNCLKDAGISAKEVDEVLLVGGMTRVPKVQSIVAEIFGKSPSKGVNPDEAVAMGAALQGGILRGDVKELLLLDVTPLSLGIETLGGVFTRLITRNTTIPTKKSQVFSTAADNQTQVGIRVLQGEREMATDNKLLGEFDLVGIPPSPRGVPQIEVTFDIDANGIVTVSAKDKTTGKVQQITIRSSGGLSEDDIQKMVREAELHAQKDKERKELIDTKNTADTTIYSIEKSLGEYREKIPSEIAKEIEDAVADLRSASSGDDLNEIKAKIEAANKAVSKIGEHMSGGSGGGSAPGGGSEGGSDQAPEAEYEEVKK
Take B5: in the assay with SSR1-cCFP (Arabidopsis), the binding entry was “binds”.

B6: HSCA2-Myc (protein, UniProt Q9LDZ0 51-682)
chain: SSKPAGNDVIGIDLGTTNSCVAVMEGKNPKVIENAEGARTTPSVVAFNTKGELLVGTPAKRQAVTNPTNTVSGTKRLIGRKFDDPQTQKEMKMVPYKIVRAPNGDAWVEANGQQYSPSQIGAFILTKMKETAEAYLGKSVTKAVVTVPAYFNDAQRQATKDAGRIAGLDVERIINEPTAAALSYGMTNKEGLIAVFDLGGGTFDVSVLEISNGVFEVKATNGDTFLGGEDFDNALLDFLVNEFKTTEGIDLAKDRLALQRLREAAEKAKIELSSTSQTEINLPFITADASGAKHFNITLTRSRFETLVNHLIERTRDPCKNCLKDAGISAKEVDEVLLVGGMTRVPKVQSIVAEIFGKSPSKGVNPDEAVAMGAALQGGILRGDVKELLLLDVTPLSLGIETLGGVFTRLITRNTTIPTKKSQVFSTAADNQTQVGIRVLQGEREMATDNKLLGEFDLVGIPPSPRGVPQIEVTFDIDANGIVTVSAKDKTTGKVQQITIRSSGGLSEDDIQKMVREAELHAQKDKERKELIDTKNTADTTIYSIEKSLGEYREKIPSEIAKEIEDAVADLRSASSGDDLNEIKAKIEAANKAVSKIGEHMSGGSGGGSAPGGGSEGGSDQAPEAEYEEVKK
For B6, the binding entry with SSR1-Flag (Arabidopsis) is on record as “binds”.
